{"source": "PubChem BioAssay AID1053208 (Peter MacCallum Cancer Centre, 2014)", "assay": "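Genes whose silencing cuts survival of bone tumour cells only with doxorubicin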 (primary screen)", "cell system": "mouse osteosarcoma cells, early-passage culture from an engineered mouse model of fibroblastic bone tumour", "reagents": "siRNA pool against mouse genes, 40 nM", "time to read-out": "about 120 h (48 h before drug, then 72 h with drug)", "treatment": "doxorubicin 100 nM for 72 h, roughly 30-40% inhibitory dose", "read-out": "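Viability read as ATP luminescence after 72 h of 100 nM doxorubicin or none, duplicate wells averaged, scaled to non-targeting siRNA, then expressed as robust z-scores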", "scale": "viability z-score with doxorubicin: higher = more viable cells under doxorubicin; viability z-score without drug: higher = more viable cells with knock-down alone", "hit rule": "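Called active if knock-down leaves viability unchanged without drug (z within -2 to 2) but lowers it with doxorubicin (z at or under -2)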", "note": "Here is an unselected part of about 17,000 deposited reagents. 788 of them (4.7%) were called active. 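Calls rest on z-score classes alone; an extra cut-off of viability at most 70% of control was not applied to them.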 Entries without a mark were called inactive. Not all columns of the deposit are shown."}
The first 2 records as a preview:
{"gene knocked down":"Hacd1","combined z-score class":"no change with or without drug","viability z-score with doxorubicin":1.01,"viability z-score without drug":0.67}
{"gene knocked down":"Tert","combined z-score class":"no change with or without drug","viability z-score with doxorubicin":0.34,"viability z-score without drug":-0.51}

Main list, repeating the preview:
{"gene knocked down":"Hacd1","combined z-score class":"no change with or without drug","viability z-score with doxorubicin":1.01,"viability z-score without drug":0.67}
{"gene knocked down":"Tert","combined z-score class":"no change with or without drug","viability z-score with doxorubicin":0.34,"viability z-score without drug":-0.51}
{"gene knocked down":"Cnpy1","combined z-score class":"no change with or without drug","viability z-score with doxorubicin":-0.11,"viability z-score without drug":0}
{"gene knocked down":"Or5p56","combined z-score class":"no change with or without drug","viability z-score with doxorubicin":0.45,"viability z-score without drug":-0.84}
{"gene knocked down":"4921511C20Rik","combined z-score class":"no change with or without drug","viability z-score with doxorubicin":-0.79,"viability z-score without drug":-0.34}
{"gene knocked down":"Klc3","combined z-score class":"no change with or without drug","viability z-score with doxorubicin":-0.45,"viability z-score without drug":-0.17}
{"gene knocked down":"B4galt3","combined z-score class":"no change with or without drug","viability z-score with doxorubicin":0.11,"viability z-score without drug":0.17}
{"gene knocked down":"Ndufa1","combined z-score class":"low cell count with and without drug","viability z-score with doxorubicin":-2.25,"viability z-score without drug":-3.54}
{"gene knocked down":"Nhsl1","combined z-score class":"no change with or without drug","viability z-score with doxorubicin":1.12,"viability z-score without drug":0.51}
{"gene knocked down":"Ankrd49","combined z-score class":"no change with or without drug","viability z-score with doxorubicin":0.22,"viability z-score without drug":-0.17}
{"gene knocked down":"Ubr2","combined z-score class":"no change with or without drug","viability z-score with doxorubicin":0.9,"viability z-score without drug":1.52}
{"gene knocked down":"Or4f56","combined z-score class":"no change with or without drug","viability z-score with doxorubicin":-1.35,"viability z-score without drug":-0.84}
